± gives the standard deviation. The list shows a part of the results, in another mix than the full data. Many of these values have a large error.
Each sequence was assayed on MILI (PIWIL2) piRISC loaded with piRNA #2 (26 nt) (assay: pre-steady-state target cleavage rate (min^-1); MIWI and MILI are mouse PIWI proteins and EfPiwi is from a freshwater sponge; tags in brackets are library labels; higher = faster piRNA-guided slicing of the target). Settings: guide: piRNA #2 5'p-UUAGGUAACCCAGUAGAUCCAGAGGA; auxiliary factor: 500 nM mouse GTSF1.
In short: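 Cleave-'n-Seq: 1 nM active affinity-purified piRISC with one synthetic guide and 0.1 nM transcribed, DNA-blocked target RNA library were mixed, with or without 500 nM GTSF1 partner protein, in HEPES–potassium acetate buffer at 33 °C for 0–8 or 0–960 min. Uncleaved targets were sequenced and normalised to depth and to weakly complementary targets, three trials were pooled, and k3 was capped at 0.0001 min^-1. The pre-steady-state cleavage rate was fitted […].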

| Sequence | pre-steady-state target cleavage rate |
| --- | --- |
| CUUAAGGAGAGGUUCUACUGGGUAACCUAA | 0.00387 ± 0.0047 |
| CUUAAGGUCUGCAUCUACUGGCUUACCUAA | 0.000822 ± 0.015 |
| CUUAAGGAGACCUUCUUCUGGGUAACCUAA | 0.000662 ± 0.011 |
| CUUAAGGAGACCUUCUACUGCGUUACGUAA | 0.000901 ± 0.012 |
| CUUAAGGAGACGAUCUAGUGGGUUACCAAA | 0.000859 ± 0.0076 |
| CUUAAGGAGACCUACUUGAGGGUUACCUAA | 0.00067 ± 0.013 |
| CUUAAGGACUGGAUCUACACCGUUACCUAA | 0.00215 ± 0.0075 |
| CUUAAGCUCUGGAUCUACUGAGGUUACCUAA | 0.00136 ± 0.007 |
| CUUAAGGAGAGGAUCUACUGGGUAUCCUAA | 0.000984 ± 0.01 |
| CUUAUCGUCUGGAUCUACUGGCUUACCUAA | 0.000366 ± 0.027 |
| CUUAAGGAGUGGAUCUAUGGGUUACCUAA | 0.00216 ± 0.0035 |
| CUUAAGGAGACGAAGUACUGGGUUACCUAA | 0.000256 ± 0.01 |
| CUUAAGGAGACCUAGAUCUGGGAUUACCUAA | 0.000349 ± 0.02 |
| CUUAAGGAGACCAUCUACUGGGUAACCAAA | 0.000281 ± 0.017 |
| CUUAACCUCUGGAUCUACUGGGAUACCUUA | 0.0634 ± 0.023 |
| CUUAAGGAGACCUAGAUGACGGUCUACCUAA | 0.000449 ± 0.023 |
| CUUAAGGAGACCACCUACUGGGUUACCUAA | 0.000767 ± 0.012 |
| CUUAAGGAGACCUAGAUGAGUGUUACCUAA | 0.000264 ± 0.016 |
| CUUAAGGAGUCGAUCUACUGGGUUACCUUA | 0.00201 ± 0.0069 |
| CUUAACCUCUGGACCUACUGGGUUACCUAA | 0.0796 ± 0.023 |
| CUUAAGGAGACCUAGUACAGGGUUAGCUAA | 0.000109 ± 0.07 |
| CUUAAGGAGACGAUCUACCUGGGUUACCUAA | 0.000758 ± 0.014 |
| CUUAAGGAGUGGAUCUACUGGGUUACGAAA | 0.00127 ± 0.0097 |

| Sequence | pre-steady-state target cleavage rate |
| --- | --- |
| CUUAAGGAGAGGAUCUACUUGGGUUACCUAA | 0.00122 ± 0.0062 |
| CUUAAGGAGACCUUCUACUGGGGUUACCUAA | 0.000567 ± 0.017 |
| CUUAAGGAGAGGAUACUACUGGGUUACCUAA | 0.00123 ± 0.0062 |
| CUUAAGGAGUGCAUCAACUGGGUUACCUAA | 0.000547 ± 0.024 |
| CUUAAGGAGACCUUGUACUGGGUUACCUAA | 0.000511 ± 0.015 |
| CUUAAGGAGAGGAUGUACUGGGUUACCUUA | 0.00254 ± 0.0084 |
| CUUAAGGACUGGAUGUACUGGGUUACCAAA | 0.00605 ± 0.0089 |
| CUUAAGGAGACCUUUACUGGGUUACCUAA | 0.000628 ± 0.018 |
| CUUAAGGAGACGAUCUACUGGGUUAGCCUAA | 0.00184 ± 0.0078 |
| CUUAAGGAGACCAUCAACUGGGUUACCUAA | 0.000798 ± 0.0094 |
| CUUAAGGACUGGUACUACUGGGUUACCUAA | 0.000773 ± 0.039 |
| CUUAAGGAGACCUAGAUCUGGGUUACGUAA | 0.000263 ± 0.024 |
| CUUAAGCUCUGGAUCUACUCGGUUACGUAA | 0.000454 ± 0.02 |
| CUUAAGGAGAGGAUCUACUGGCUUUCCUAA | 0.000158 ± 0.042 |
| CUUAAGGAGACGAUCUUCUGGGUUACCUAA | 0.00291 ± 0.003 |
| CUUAAGGAGACCUACUACUGGGUUCCCUAA | 0.000275 ± 0.023 |
| CUUAAGCACUGGAUCUACUGGCUUACCUAA | 0.00121 ± 0.0076 |
| CUUAAGCUCAGGAUCUACUGGCUUACCUAA | 0.00106 ± 0.015 |
| CUUAAGGUCUGGAUCUACUGGGAUACCAAA | 0.000905 ± 0.011 |
| CUUAAGGAGAGGUUCUAGUGGGUUACCUAA | 0.00235 ± 0.0045 |
| CUUAAGGAGACCUAGAUCUGGGUUACCCAA | 0.000403 ± 0.025 |
| CUUAAGGAGAGGAACUUCUGGGUUACCUAA | 0.000314 ± 0.022 |
| CUUAAGGAGACCUUCUACUGGCGUUACCUAA | 0.000165 ± 0.038 |

Part of the list above, with bars between the fields:
Sequence | pre-steady-state target cleavage rate
CUUAAGGAGUGCAUCAACUGGGUUACCUAA | 0.000547 ± 0.024
CUUAAGGAGACCUUGUACUGGGUUACCUAA | 0.000511 ± 0.015
CUUAAGGAGAGGAUGUACUGGGUUACCUUA | 0.00254 ± 0.0084
CUUAAGGACUGGAUGUACUGGGUUACCAAA | 0.00605 ± 0.0089
CUUAAGGAGACCUUUACUGGGUUACCUAA | 0.000628 ± 0.018
CUUAAGGAGACGAUCUACUGGGUUAGCCUAA | 0.00184 ± 0.0078
CUUAAGGAGACCAUCAACUGGGUUACCUAA | 0.000798 ± 0.0094
CUUAAGGACUGGUACUACUGGGUUACCUAA | 0.000773 ± 0.039
CUUAAGGAGACCUAGAUCUGGGUUACGUAA | 0.000263 ± 0.024
CUUAAGCUCUGGAUCUACUCGGUUACGUAA | 0.000454 ± 0.02
CUUAAGGAGAGGAUCUACUGGCUUUCCUAA | 0.000158 ± 0.042
CUUAAGGAGACGAUCUUCUGGGUUACCUAA | 0.00291 ± 0.003
CUUAAGGAGACCUACUACUGGGUUCCCUAA | 0.000275 ± 0.023
CUUAAGCACUGGAUCUACUGGCUUACCUAA | 0.00121 ± 0.0076
CUUAAGCUCAGGAUCUACUGGCUUACCUAA | 0.00106 ± 0.015
CUUAAGGUCUGGAUCUACUGGGAUACCAAA | 0.000905 ± 0.011
CUUAAGGAGAGGUUCUAGUGGGUUACCUAA | 0.00235 ± 0.0045
CUUAAGGAGACCUAGAUCUGGGUUACCCAA | 0.000403 ± 0.025

(list continues)

| Sequence | pre-steady-state target cleavage rate |
| --- | --- |
| CUUAAGGAGACCAUCUACUGUGGUUACCUAA | 0.000369 ± 0.027 |
| CUUAAGGAGACGUACUACUGGGUUACCUAA | 0.00031 ± 0.015 |
| CUUAAGGACUCGAUCUACUGGGUUACGUAA | 0.00124 ± 0.0096 |
| CUUAAGGAGACGGUCUACUGGGUUACCUAA | 0.00053 ± 0.012 |
| CUUAAGGAGAGGAUCUACUGGGAUUCCUAA | 0.000211 ± 0.024 |
| CUUAAGCUCUGGAUCUUACUGGGUUACCUAA | 0.000797 ± 0.0086 |
| CUUAAGGAGAGGAUCUACUGGGUUGACCUAA | 0.000665 ± 0.016 |
| CUUAAGGAGACCUUCUACUGGGUGUACCUAA | 0.000713 ± 0.01 |
| CUUAAGGAGACGAUCUACUGGGUUAACCUAA | 0.00242 ± 0.0045 |
| CUUAAGCUCUGGAUCUACACCGUUACCUAA | 0.00171 ± 0.0074 |
| CUUAAGGAGUGGAUCUACUGGAGUUACCUAA | 0.000542 ± 0.012 |
| CUUAAGGAGACCUAGUUCUGGGUUAGCUAA | 0.000309 ± 0.035 |
| CUUAAGGAGACCAUCUACAUGGGUUACCUAA | 0.000463 ± 0.021 |
| CUUAAGGUCUGGAUCUACUGGGCUACCUAA | 0.00198 ± 0.0061 |
| CUUAAGGAGAGGAUCUACGGGUUACCUAA | 0.000812 ± 0.01 |
| CUUAAGGACUGGAACUACUGGGUUUCCUAA | 0.00042 ± 0.04 |
| CUUAAGGUCUGGAUGUACUGGGUUAGCUAA | 0.00595 ± 0.0085 |
| CUUAAGCUCUGGAUCAUGUGGGUUACCUAA | 0.00248 ± 0.0047 |
| CUUAAGGAGUGGAUCUACUGGCUUACCUAA | 0.000228 ± 0.036 |
| CUUAAGGAGACCAUCUCCUGGGUUACCUAA | 0.0019 ± 0.0091 |
| CUUAAGGACUGGAUCUACUGGGUUACCAA | 0.00347 ± 0.0078 |
| CUUAUCCUCUGGUACUACUGGGUUACCUAA | 0.754 ± 0.23 |
| CUUAAGGAGUGGAUCUACUGGGCUUACCUAA | 0.000323 ± 0.046 |

| Sequence | pre-steady-state target cleavage rate |
| --- | --- |
| CUUAAGGAGACAAUCUACUGGGUUACCUAA | 0.00179 ± 0.0045 |
| CUUAAGGAGACCUACUACAGGGAUACCUAA | 0.000189 ± 0.035 |
| CUUAAGGAGAGGAUCUACAGGGUAACCUAA | 0.00234 ± 0.0053 |
| CUUAAGGAGACCUUCUACUGUGUUACCUAA | 0.000158 ± 0.036 |
| CUUAACCUCUGGAUUACUGGGUUACCUAA | 0.0792 ± 0.024 |
| CUUAAGGAGAGGAACUACUCGGUUACCUAA | 0.000171 ± 0.033 |
| CUUAAGGAGACCUUCUACUGGGUAUCCUAA | 0.0003 ± 0.029 |
| CUUAAGGUCUGGAACUACUGGGUAACCUAA | 0.00543 ± 0.0077 |
| CUUAAGGAGUGGAUGUUCUGGGUUACCUAA | 0.00414 ± 0.0085 |
| CUUAAGGAGAGGAUCUACAGGGAUACCUAA | 0.00102 ± 0.015 |
| CUUAAGGAGACCUUCUACACCGUUACCUAA | 0.000849 ± 0.013 |
| CUUAAGGAGUGGAACUACUGGGUAACCUAA | 0.00198 ± 0.011 |
| CUUAACAUCUGGAUCUACUGGGUUACCUAA | 0.114 ± 0.019 |
| CUUAAGGUCUGGAUGUACUGGGUAACCUAA | 0.00502 ± 0.0077 |
| CUUAUCCUCUGGAUCUACUGGGUUAUCCUAA | 0.204 ± 0.046 |
| CUUAAGGACUGGAUCUACUGGGUUAACUAA | 0.003 ± 0.0095 |
| CUUAAGGAGACGAUGUACUGGGUUACCUUA | 0.000708 ± 0.014 |
| CUUAAGGAGACCAUCUACUGGGUUACCUAA [g2:g18:cont:t1A] | 0.00162 ± 0.0041 |
| CUUAAGGAGACCUACUACUGGGAUACCUAA | 0.000162 ± 0.021 |
| CUUAAGGAGACCAUCUACUGGGAUACCAAA | 0.000109 ± 0.032 |
| CUUAAGGAGAGGAUCUACUGCGUUACCAAA | 0.000348 ± 0.037 |
| CUUAAGCUCUGGAUCUACUGGCUUACGUAA | 0.000231 ± 0.021 |
| CUUAAGGAGACGAUCUUACUGGGUUACCUAA | 0.000618 ± 0.0079 |

Source: the supplement of paper PMC10338343
